Assay results reported in patent US7888289B2, “Heterocyclylethylbenzamide derivatives” (Bayer Cropscience AG, priority 2005, dated 2011).
Some entries share one result that the patent states for a list of compounds.

Tested on: Pyrenophora teres
Assay: In vivo test on Pyrenophora teres (barley plants, preventive spray)
Details: dose of 110 ppm; barley plants (Express variety); contaminated 24 hours after treatment; grading 12 days after contamination vs control plants

SMILES	protection (good (at least 50%) to total)
Cc1ccsc1CCNC(=O)c1ccccc1C(F)F [Compound A-1]	at least 50%
Cc1nc(CCNC(=O)c2ccccc2C(F)(F)F)sc1C [Compound B-2]	at least 50%
COc1cc(C(F)(F)F)nn1CCNC(=O)c1ccccc1Br [Compound E-1]	at least 50%

Same assay, conditions: dose of 330 ppm; barley plants (Express variety); contaminated 24 hours after treatment; grading 12 days after contamination vs control plants

SMILES	protection (good (at least 50%) to total)
O=C(NCCc1sccc1Cl)c1ccccc1I [Compound A-6]	at least 50%
Cn1cc(CCNC(=O)c2ccccc2Cl)c(C(F)(F)F)n1 [Compound D-4]	at least 50%
Cc1ccccc1C(=O)NCCc1cn(C)nc1C(F)(F)F [Compound D-5]	at least 50%
